Test results as given in the supplement of paper PMC10849652.
The other results are listed elsewhere or left out.

Amino acid sequences for entries named in this document (tags omitted). A change or cut given only in a name is not applied to a line headed by its entry.
UniProt Q8NBF2: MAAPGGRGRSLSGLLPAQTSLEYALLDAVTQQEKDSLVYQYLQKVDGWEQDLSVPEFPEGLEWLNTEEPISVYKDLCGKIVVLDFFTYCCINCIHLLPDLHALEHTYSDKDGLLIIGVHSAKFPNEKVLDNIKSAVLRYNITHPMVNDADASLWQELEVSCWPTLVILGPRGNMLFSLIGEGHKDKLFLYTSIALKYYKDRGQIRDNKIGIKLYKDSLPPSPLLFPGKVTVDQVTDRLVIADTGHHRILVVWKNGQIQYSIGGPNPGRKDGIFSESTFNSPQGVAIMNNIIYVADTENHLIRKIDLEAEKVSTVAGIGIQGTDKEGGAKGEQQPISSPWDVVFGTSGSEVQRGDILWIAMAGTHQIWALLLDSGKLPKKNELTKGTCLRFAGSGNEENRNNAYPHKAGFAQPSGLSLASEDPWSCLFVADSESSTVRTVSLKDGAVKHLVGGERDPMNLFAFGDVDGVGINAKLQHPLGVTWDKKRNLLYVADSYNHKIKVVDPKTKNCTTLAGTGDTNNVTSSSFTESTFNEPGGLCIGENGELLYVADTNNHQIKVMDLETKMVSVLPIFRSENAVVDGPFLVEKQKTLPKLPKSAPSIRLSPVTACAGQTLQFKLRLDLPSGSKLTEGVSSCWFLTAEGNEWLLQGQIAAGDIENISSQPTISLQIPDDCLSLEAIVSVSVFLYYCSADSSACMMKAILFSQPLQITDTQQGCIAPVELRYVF
UniProt Q96TA1: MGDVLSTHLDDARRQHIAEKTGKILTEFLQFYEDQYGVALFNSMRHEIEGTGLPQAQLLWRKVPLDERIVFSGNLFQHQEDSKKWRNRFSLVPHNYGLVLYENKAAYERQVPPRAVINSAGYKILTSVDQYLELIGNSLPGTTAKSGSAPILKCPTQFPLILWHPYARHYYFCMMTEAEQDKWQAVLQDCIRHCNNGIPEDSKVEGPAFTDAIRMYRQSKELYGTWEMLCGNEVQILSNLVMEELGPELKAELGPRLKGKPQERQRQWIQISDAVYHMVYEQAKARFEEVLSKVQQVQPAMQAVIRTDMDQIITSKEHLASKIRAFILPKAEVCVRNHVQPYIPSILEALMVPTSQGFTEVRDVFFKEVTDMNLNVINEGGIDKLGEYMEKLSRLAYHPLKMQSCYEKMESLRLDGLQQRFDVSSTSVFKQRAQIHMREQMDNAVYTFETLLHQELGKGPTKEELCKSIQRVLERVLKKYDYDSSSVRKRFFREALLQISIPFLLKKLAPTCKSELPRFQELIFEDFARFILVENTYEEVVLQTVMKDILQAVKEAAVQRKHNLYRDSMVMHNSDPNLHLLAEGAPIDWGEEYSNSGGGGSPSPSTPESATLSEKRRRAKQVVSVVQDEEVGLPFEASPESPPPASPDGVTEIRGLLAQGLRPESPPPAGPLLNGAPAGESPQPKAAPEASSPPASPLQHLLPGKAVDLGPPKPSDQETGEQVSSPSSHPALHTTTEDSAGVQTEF
UniProt Q9Y3C1: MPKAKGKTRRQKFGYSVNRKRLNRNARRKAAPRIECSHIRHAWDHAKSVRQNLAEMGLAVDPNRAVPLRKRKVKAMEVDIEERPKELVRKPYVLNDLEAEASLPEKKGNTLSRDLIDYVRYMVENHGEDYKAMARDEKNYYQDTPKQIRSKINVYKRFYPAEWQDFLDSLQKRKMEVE
UniProt P06748, whole entry, looked up: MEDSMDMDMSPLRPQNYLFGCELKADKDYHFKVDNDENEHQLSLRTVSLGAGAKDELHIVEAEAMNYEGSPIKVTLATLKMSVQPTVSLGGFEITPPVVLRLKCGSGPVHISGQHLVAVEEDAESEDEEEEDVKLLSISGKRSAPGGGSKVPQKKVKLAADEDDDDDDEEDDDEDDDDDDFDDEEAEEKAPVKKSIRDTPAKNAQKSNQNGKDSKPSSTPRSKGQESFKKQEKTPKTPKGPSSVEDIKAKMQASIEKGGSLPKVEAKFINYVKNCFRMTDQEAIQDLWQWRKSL
UniProt Q9NVX2: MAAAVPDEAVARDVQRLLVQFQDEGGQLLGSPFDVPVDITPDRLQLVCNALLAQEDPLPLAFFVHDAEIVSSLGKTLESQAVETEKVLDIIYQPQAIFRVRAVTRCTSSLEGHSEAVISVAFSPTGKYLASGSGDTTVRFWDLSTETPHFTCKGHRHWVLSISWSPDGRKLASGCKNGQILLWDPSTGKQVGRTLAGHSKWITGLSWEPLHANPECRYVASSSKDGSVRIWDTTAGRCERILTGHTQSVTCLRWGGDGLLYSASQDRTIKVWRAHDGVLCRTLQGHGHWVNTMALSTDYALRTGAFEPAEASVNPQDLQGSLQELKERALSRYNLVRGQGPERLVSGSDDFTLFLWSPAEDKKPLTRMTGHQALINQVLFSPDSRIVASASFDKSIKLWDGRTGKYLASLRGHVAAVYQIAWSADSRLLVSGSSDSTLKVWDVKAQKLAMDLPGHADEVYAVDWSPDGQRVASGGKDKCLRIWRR
UniProt Q86WQ0: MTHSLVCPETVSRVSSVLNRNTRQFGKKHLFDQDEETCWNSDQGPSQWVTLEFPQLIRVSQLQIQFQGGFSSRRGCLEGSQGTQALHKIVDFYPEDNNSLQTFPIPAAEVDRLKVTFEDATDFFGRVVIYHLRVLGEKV
UniProt Q9BYT8, whole entry, looked up: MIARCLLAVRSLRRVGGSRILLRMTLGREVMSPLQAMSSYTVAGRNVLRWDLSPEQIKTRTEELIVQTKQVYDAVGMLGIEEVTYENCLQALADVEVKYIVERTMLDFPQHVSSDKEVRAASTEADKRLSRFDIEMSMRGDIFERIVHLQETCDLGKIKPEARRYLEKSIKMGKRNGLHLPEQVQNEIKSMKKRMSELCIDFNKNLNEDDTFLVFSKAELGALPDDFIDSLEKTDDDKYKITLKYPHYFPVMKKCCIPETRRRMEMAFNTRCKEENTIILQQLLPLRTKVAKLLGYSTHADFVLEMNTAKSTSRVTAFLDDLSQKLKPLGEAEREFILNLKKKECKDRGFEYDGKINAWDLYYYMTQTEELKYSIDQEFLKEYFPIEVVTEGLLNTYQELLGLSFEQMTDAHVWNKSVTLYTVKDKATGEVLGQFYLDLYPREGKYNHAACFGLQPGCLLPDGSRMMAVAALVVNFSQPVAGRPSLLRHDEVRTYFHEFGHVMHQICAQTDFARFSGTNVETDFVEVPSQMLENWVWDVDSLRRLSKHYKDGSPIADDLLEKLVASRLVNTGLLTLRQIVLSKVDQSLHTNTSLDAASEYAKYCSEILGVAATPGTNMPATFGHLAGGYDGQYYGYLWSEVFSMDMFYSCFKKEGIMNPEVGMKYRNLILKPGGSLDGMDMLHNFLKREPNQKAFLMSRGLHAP
UniProt P24468: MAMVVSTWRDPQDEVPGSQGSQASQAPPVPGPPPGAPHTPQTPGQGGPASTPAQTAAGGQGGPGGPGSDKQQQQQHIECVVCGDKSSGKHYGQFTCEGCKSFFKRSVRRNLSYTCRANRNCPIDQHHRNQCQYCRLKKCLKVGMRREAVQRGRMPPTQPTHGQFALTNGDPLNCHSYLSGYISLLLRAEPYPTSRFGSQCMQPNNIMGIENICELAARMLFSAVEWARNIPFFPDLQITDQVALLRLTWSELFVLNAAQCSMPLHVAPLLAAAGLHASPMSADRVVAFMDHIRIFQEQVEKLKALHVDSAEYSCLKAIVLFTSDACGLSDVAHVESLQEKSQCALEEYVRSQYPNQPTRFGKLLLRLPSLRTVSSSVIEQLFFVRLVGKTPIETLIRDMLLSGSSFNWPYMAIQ
UniProt Q9NX02: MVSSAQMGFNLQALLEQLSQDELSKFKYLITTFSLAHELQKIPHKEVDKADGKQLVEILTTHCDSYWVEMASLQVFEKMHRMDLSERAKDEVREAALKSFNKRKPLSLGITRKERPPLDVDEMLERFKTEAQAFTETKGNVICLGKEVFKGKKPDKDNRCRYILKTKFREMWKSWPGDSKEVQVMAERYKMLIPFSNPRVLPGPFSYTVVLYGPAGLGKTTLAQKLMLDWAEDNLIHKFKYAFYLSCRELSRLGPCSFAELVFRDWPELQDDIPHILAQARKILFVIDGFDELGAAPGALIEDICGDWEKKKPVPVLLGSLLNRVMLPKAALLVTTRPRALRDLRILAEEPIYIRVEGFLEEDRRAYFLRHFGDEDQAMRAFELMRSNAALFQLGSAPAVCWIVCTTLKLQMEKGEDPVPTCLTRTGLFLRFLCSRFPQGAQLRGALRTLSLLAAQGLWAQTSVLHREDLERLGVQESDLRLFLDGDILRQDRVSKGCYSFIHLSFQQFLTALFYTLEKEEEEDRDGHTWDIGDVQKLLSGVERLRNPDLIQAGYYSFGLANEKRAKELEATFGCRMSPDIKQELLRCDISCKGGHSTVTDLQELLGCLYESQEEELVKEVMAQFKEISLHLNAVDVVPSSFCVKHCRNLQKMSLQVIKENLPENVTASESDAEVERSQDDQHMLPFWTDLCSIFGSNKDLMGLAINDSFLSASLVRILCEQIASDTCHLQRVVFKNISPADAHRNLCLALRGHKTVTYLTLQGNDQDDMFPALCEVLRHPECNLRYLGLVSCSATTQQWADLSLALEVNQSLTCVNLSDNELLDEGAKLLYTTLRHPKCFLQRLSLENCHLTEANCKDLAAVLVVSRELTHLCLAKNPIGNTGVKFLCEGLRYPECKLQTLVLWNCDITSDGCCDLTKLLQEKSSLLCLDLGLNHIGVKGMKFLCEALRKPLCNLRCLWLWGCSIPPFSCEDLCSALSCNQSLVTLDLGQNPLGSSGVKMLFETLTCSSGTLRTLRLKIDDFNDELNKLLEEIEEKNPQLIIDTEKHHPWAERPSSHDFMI
UniProt Q13469: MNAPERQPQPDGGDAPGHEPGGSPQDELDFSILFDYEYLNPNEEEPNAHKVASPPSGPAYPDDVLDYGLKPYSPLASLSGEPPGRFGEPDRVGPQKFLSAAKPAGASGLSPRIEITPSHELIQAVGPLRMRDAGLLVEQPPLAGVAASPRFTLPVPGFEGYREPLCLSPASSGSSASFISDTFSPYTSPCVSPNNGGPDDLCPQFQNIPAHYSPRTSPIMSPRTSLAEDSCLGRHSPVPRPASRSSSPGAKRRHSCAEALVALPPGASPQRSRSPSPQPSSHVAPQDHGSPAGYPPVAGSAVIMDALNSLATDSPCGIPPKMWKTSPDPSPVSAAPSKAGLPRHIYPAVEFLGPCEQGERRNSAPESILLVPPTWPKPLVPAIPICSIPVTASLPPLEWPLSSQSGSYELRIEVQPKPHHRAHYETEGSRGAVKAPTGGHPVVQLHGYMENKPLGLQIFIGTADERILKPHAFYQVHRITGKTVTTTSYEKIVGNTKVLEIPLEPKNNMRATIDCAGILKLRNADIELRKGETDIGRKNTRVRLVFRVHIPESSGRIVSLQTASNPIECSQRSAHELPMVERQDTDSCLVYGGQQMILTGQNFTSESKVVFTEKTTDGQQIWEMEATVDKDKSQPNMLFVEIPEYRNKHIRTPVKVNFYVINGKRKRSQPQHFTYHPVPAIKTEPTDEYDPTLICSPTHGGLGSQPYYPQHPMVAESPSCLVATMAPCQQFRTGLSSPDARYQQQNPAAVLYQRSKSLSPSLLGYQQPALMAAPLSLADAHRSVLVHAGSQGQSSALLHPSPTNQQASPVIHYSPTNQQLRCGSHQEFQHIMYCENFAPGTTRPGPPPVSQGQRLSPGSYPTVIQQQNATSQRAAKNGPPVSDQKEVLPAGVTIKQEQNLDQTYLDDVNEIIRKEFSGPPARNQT
UniProt Q14978: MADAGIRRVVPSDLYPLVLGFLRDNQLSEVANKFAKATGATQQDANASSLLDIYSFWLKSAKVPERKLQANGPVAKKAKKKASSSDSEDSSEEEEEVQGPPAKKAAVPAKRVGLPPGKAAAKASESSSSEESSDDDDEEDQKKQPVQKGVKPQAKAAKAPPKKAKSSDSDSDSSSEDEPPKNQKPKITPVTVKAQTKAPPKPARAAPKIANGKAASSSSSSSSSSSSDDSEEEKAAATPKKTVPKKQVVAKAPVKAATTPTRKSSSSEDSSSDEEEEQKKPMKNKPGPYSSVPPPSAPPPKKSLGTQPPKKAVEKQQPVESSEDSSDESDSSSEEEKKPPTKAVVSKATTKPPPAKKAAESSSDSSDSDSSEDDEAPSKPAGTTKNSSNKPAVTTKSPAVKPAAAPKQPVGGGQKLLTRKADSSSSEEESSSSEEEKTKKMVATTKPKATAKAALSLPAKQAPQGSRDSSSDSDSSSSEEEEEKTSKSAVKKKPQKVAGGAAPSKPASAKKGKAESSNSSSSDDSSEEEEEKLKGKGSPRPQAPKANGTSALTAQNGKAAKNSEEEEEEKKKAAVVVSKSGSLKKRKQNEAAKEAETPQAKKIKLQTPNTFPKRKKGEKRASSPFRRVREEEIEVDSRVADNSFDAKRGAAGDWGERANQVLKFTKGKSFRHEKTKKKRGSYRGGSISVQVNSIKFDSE
UniProt P15531, whole entry, looked up: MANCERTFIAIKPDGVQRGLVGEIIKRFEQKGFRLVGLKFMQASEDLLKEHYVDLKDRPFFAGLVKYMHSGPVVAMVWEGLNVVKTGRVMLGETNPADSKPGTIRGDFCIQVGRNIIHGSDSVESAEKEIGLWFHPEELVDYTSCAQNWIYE

Key:
Experiment in all cases: log2 fold change, soluble protein after heating vs DMSO (PISA); higher = thermal stabilisation; K562 cells, 10 uM, 30 min; active = over 0.2 and 3.5 SD of the protein, either way, in both replicates (recomputed)
erlotinib = compound: C#Cc1cccc(Nc2ncnc3cc(OCCOC)c(OCCOC)cc23)c1 [erlotinib]
Summary of the method: (§1)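 Values are thermal stability changes relative to control samples and are taken from duplicates. They are stated as log2 fold changes. Before quantification by TMTpro 16plex LC-MS/MS with equalised channel sums, K562 cells at 2×10^6 cells/mL were treated with 10 μM compound for 30 min, heated in aliquots for 3 min across 48°C-58°C, pooled, extracted in PBS with 0.5% NP-40 at 4°C, and centrifuged at 21,000xg for 90 min to give the soluble supernatant.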

[1] = compound: C/C(=N\NC(=O)C1=CC(=CC=C1)S(=O)(=O)N2CCOCC2)/C3=C(C=CC(=C3)Cl)O
Summary of the method: as §1

[2] = compound: C1=CC(=C(C=C1Cl)C2=NC3=NC=CN=C3C(=N2)NC4=CC=NC=C4)F
Summary of the method: as §1

[3] = compound: C1=CC(=CC=C1C2=NC3=C(N2)C=C(C=C3)C(=O)N)OC4=CC=C(C=C4)Cl
Summary of the method: as §1

[4] = compound: C1=CC2=C(C=CC(=C2)/C=C\3/C(=O)NC(=NCC4=CC=CS4)S3)N=C1
Summary of the method: as §1

[5] = compound: C1=CC2=NC=CN=C2C=C1/C=C/3\C(=O)NC(=O)S3
Summary of the method: as §1

[6] = compound: C1=CC=C(C=C1)C2=NC(=C(N2)C3=CC=NC=C3)C4=CC(=C(C=C4)Cl)O
Summary of the method: as §1

[7] = compound: C1=CC=C2C(=C1)C3=NNC4=CC=CC(=C43)C2=O
Summary of the method: as §1

[8] = compound: C1CCN(C1)C(=O)NC2=CC=CC(=C2)NC3=NC=C(C(=N3)NCCC4=CN=CN4)Br
Summary of the method: as §1

[9] = compound: C1CN(CCC1(CC2=CC=C(C=C2)Cl)N)C3=NC=NC4=C3C=CN4
Summary of the method: as §1

Measured: log2 fold change

NF2 (UniProt P35240)
inactive: erlotinib -0.001 | [1] -0.021 | [2] -0.022 | [3] 0.05 | [4] 0.088 | [5] 0.045 | [6] -0.064 | [7] -0.028 | [8] -0.072 | [9] 0.027

NGLY1 (UniProt Q96IV0)
inactive: erlotinib 0.035 | [1] -0.06 | [2] -0.036 | [3] -0.014 | [4] 0.17 | [5] 0.023 | [6] -0.001 | [7] 0.045 | [8] -0.023 | [9] -0.024

NHLRC2 (UniProt Q8NBF2)
inactive: erlotinib 0.035 | [1] 0 | [2] -0.059 | [3] 0.057 | [4] 0.065 | [5] -0.074 | [6] -0.114 | [7] 0.042 | [8] 0.051 | [9] 0.001

NF1 (UniProt P21359)
inactive: erlotinib 0.015 | [1] 0.031 | [2] -0.033 | [3] 0.03 | [4] 0.062 | [5] 0.11 | [6] 0.004 | [7] -0.058 | [8] -0.08 | [9] -0.027

NIBAN2 (UniProt Q96TA1)
inactive: erlotinib 0.042 | [1] 0.016 | [2] 0.027 | [3] -0.01 | [4] 0.018 | [5] 0.016 | [6] 0.009 | [7] -0.04 | [8] 0.003 | [9] 0.021

NOP16 (UniProt Q9Y3C1)
inactive: erlotinib -0.227 | [1] -0.289 | [2] -0.485 | [3] -0.03 | [4] -0.167 | [5] -0.044 | [6] -0.054 | [7] 0.017 | [8] 0.058 | [9] -0.163

NEK9 (UniProt Q8TD19)
inactive: erlotinib 0.018 | [1] 0.018 | [2] 0.054 | [3] -0.008 | [4] 0.013 | [5] 0.055 | [6] -0.033 | [7] 0.004 | [8] 0.006 | [9] 0.019

Quoted at random: 2 records from the list.
NOP16 (UniProt Q9Y3C1)
inactive: erlotinib -0.227 | [1] -0.289 | [2] -0.485 | [3] -0.03 | [4] -0.167 | [5] -0.044 | [6] -0.054 | [7] 0.017 | [8] 0.058 | [9] -0.163

NF1 (UniProt P21359)
inactive: erlotinib 0.015 | [1] 0.031 | [2] -0.033 | [3] 0.03 | [4] 0.062 | [5] 0.11 | [6] 0.004 | [7] -0.058 | [8] -0.08 | [9] -0.027

Next part.

NOMO1 (UniProt Q15155)
inactive: erlotinib -0.191 | [1] -0.186 | [2] 0.006 | [3] 0.024 | [4] -0.192 | [5] -0.048 | [6] -0.155 | [7] 0.11 | [8] -0.119 | [9] 0.103

NFATC3 (UniProt Q12968)
inactive: erlotinib 0.121 | [1] 0.197 | [2] 0.024 | [3] 0 | [4] 0.039 | [5] -0.013 | [6] -0.019 | [7] -0.101 | [8] -0.01 | [9] -0.027

NPM1 (UniProt P06748)
inactive: erlotinib -0.054 | [1] -0.202 | [2] -0.473 | [3] 0.043 | [4] -0.231 | [5] 0.023 | [6] -0.033 | [7] -0.023 | [8] 0.002 | [9] -0.084

NME6 (UniProt O75414)
inactive: erlotinib 0.09 | [1] -0.071 | [2] 0.031 | [3] 0.037 | [4] 0.136 | [5] 0.074 | [6] 0.04 | [7] 0.034 | [8] -0.02 | [9] -0.073

NLE1 (UniProt Q9NVX2)
inactive: erlotinib -0.041 | [1] 0.057 | [2] 0.009 | [3] 0.057 | [4] -0.01 | [5] 0.013 | [6] 0.035 | [7] 0.011 | [8] -0.043 | [9] 0.03

NOSIP (UniProt Q9Y314)
inactive: erlotinib 0.062 | [1] 0.16 | [2] 0.049 | [3] -0.05 | [4] -0.041 | [5] 0.039 | [6] -0.033 | [7] -0.03 | [8] -0.234 | [9] -0.249

NOL12 (UniProt Q9UGY1)
inactive: erlotinib -0.11 | [1] -0.102 | [2] -0.597 | [3] -0.006 | [4] -0.059 | [5] 0.073 | [6] -0.209 | [7] -0.018 | [8] 0.168 | [9] -0.171

NR2C2AP isoform 2 (UniProt Q86WQ0)
inactive: erlotinib 0.032 | [1] 0.028 | [2] -0.013 | [3] 0.048 | [4] 0.041 | [5] 0.026 | [6] -0.08 | [7] -0.134 | [8] -0.089 | [9] -0.013

NLN (UniProt Q9BYT8)
inactive: erlotinib 0.023 | [1] 0 | [2] 0.078 | [3] -0.009 | [4] 0.071 | [5] 0.003 | [6] 0.015 | [7] 0.024 | [8] -0.023 | [9] 0.037

NR2F2 (UniProt P24468)
inactive: erlotinib 0.013 | [1] 0.005 | [2] 0.027 | [3] 0.005 | [4] 0.012 | [5] -0.005 | [6] -0.05 | [7] -0.026 | [8] -0.065 | [9] 0.02

NIFK (UniProt Q9BYG3)
inactive: erlotinib -0.067 | [1] -0.152 | [2] -0.436 | [3] -0.074 | [4] 0.042 | [5] 0.023 | [6] -0.002 | [7] 0.101 | [8] 0.122 | [9] -0.06

NIBAN1 (UniProt Q9BZQ8)
inactive: erlotinib 0.014 | [1] 0.103 | [2] -0.022 | [3] 0.017 | [4] 0.058 | [5] -0.009 | [6] -0.005 | [7] -0.047 | [8] -0.017 | [9] -0.06

NRBP1 (UniProt Q9UHY1)
inactive: erlotinib -0.011 | [1] 0.081 | [2] 0.027 | [3] -0.006 | [4] 0.002 | [5] 0.045 | [6] -0.007 | [7] 0.014 | [8] -0.04 | [9] 0.005

NLRP2 (UniProt Q9NX02)
inactive: erlotinib 0.039 | [1] 0.016 | [2] -0.17 | [3] -0.03 | [4] 0.041 | [5] 0.031 | [6] 0.037 | [7] 0.029 | [8] -0.04 | [9] -0.113

NFATC2IP (UniProt Q8NCF5)
inactive: erlotinib -0.051 | [1] 0.131 | [2] -0.034 | [3] 0.014 | [4] 0.018 | [5] 0.085 | [6] -0.029 | [7] -0.014 | [8] -0.117 | [9] 0.061

NFYC (UniProt Q13952)
inactive: erlotinib 0.014 | [1] 0.004 | [2] 0.016 | [3] -0.006 | [4] 0.059 | [5] 0.007 | [6] 0.007 | [7] 0.01 | [8] -0.034 | [9] -0.042

NRBF2 (UniProt Q96F24)
inactive: erlotinib -0.023 | [1] 0 | [2] 0.048 | [3] -0.015 | [4] 0.095 | [5] 0.081 | [6] -0.046 | [7] -0.028 | [8] 0.026 | [9] 0.034

NEMP1 (UniProt O14524)
inactive: erlotinib -0.003 | [1] -0.011 | [2] -0.027 | [3] 0.023 | [4] 0.049 | [5] 0.016 | [6] -0.056 | [7] -0.162 | [8] 0.068 | [9] 0.048

NFU1 (UniProt Q9UMS0)
inactive: erlotinib 0.011 | [1] -0.028 | [2] 0.036 | [3] 0.028 | [4] -0.016 | [5] 0.002 | [6] 0.003 | [7] -0.002 | [8] -0.019 | [9] -0.074

NFATC2 (UniProt Q13469)
inactive: erlotinib -0.049 | [1] 0.147 | [2] -0.002 | [3] 0.012 | [4] 0.04 | [5] -0.132 | [6] 0.053 | [7] -0.109 | [8] -0.201 | [9] 0.007

NOLC1 isoform 2 (UniProt Q14978)
inactive: erlotinib 0.022 | [1] 0.036 | [2] -0.051 | [3] -0.005 | [4] -0.11 | [5] 0.024 | [6] -0.034 | [7] -0.171 | [8] -0.177 | [9] 0

NOP56 (UniProt O00567)
active: [2] -0.676
inactive: erlotinib -0.093 | [1] -0.012 | [3] 0.087 | [4] -0.232 | [5] 0.045 | [6] -0.164 | [7] -0.109 | [8] -0.111 | [9] -0.15

NME1 isoform 2 (UniProt P15531)
inactive: erlotinib 0.034 | [1] -0.015 | [2] 0.038 | [3] 0.092 | [4] 0.063 | [5] -0.05 | [6] -0.048 | [7] -0.001 | [8] 0.032 | [9] 0.074
